4 molecules from paper PMC8750328 can be followed below.

Chains of the proteins cited; added tags and fusions are not shown. Residues count along the entry.
UniProt P0CG72, residues 1-76: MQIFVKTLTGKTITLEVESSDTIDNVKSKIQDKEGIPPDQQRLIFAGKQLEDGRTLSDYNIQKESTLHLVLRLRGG

Substitutions are numbered along the chain they refer to. Like-named read-outs stand apart in the source and are kept apart here. These are yes or no findings as the source states them, for the method shown. Some entries that bind do so weakly or less than the wild type.

In experiment [1] the target is T1, Nse1(117–232), in pGBKT7 (S. pombe) (UniProt Q53EK2).
T1 sequence: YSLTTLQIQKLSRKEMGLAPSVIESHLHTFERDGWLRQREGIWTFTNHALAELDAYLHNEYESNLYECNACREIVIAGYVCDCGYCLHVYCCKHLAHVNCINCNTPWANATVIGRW
As to the kind of experiment: two-hybrid; GAL4-based; pGADT7 or pACT2 (activation domain) and pGBKT7 (DNA-binding domain) plasmids co-transformed into S. cerevisiae PJ69-4a; growth on media lacking Leu, Trp and His (without or with 1 mM 3-aminotriazole) or adenine; 3 days at 30 °C.

The target in experiment [2] is T2, Nse1(1–232), full-length, in pGBKT7 (S. pombe) (UniProt Q53EK2).
T2 sequence: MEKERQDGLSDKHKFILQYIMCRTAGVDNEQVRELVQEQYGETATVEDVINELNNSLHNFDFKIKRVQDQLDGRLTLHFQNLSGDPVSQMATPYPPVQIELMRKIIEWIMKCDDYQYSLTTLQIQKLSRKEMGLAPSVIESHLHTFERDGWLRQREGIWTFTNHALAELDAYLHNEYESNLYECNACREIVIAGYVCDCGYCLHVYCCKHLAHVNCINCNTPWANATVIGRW
The description is as above.

The target of experiment [3] is T3, Nse1(97–178), in pGBKT7 (S. pombe) (UniProt Q53EK2).
T3 sequence: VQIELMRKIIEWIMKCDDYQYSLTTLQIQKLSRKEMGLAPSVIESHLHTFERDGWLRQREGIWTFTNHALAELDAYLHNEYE
The experiment is described as above.

In experiment [4] the target is T2, Nse1(1–232), full-length, in pGBKT7 (S. pombe). The experiment is described as above. This is another data set of the same source.
The target in experiment [5] is T4, Nse1-R188E, in pGBKT7 (S. pombe) (UniProt Q53EK2).
T4 sequence: T2 sequence with R188E
Described as above.

The target in experiment [6] is T5, Nse1 (recombinant, of the purified Nse1/3 dimer and Nse1/3/4 trimer) (S. pombe) (UniProt Q53EK2).
T5 sequence: T2 sequence
The experiment can be described thus: co-purification of co-expressed proteins; S. pombe Nse1/3 dimer and Nse1/3/4 trimer each expressed from one plasmid and purified as described in ref. 22.

Turning to “Ubiquitin, in pGADT7 (from UniProt P0CG72 1-76)”, the binding entry in experiment [1], in experiment [2] and in experiment [3] was “binds” in each case.

B1: Nse4, complete coding sequence, in pACT2 (protein, UniProt Q6BDR8 1-300)
chain: MSSIDKRDLRKRYRNLINKVQESRLELVDEENNNLYETITTANDLFSSVDAPTEATLDALLLTKTVDLASIKARQLHIGRPKFNIELFTKNIKQFLNYPTSHSNVTRIQEIDTAWSRLGKLASNCEKQPASLNLMVGPLSFRKKERNIQRRERLQKAPNVLTQPTMLNERNITTQENNTTKNVLHISRLLQAHQPVNFLKFITNPQSYPQTVENLFYVSFLFKEGKAALVENESGILMLETRIPPTDDQVVAGEIRNIQLVLDMTMDLYENIIKEYNIKESIIPTRAPVETSTNSNTWYG
On to B1, for which the binding entry in experiment [4] and in experiment [5] was “binds” in each case.

B2: Nse4 (recombinant, of the purified Nse1/3/4 trimer) (protein, UniProt Q6BDR8 1-300)
chain: B1 chain
Consider B2, for which the binding entry in experiment [6] is reported as “binds”.

B3: Nse3 (recombinant, of the purified Nse1/3 dimer and Nse1/3/4 trimer) (protein, UniProt Q9Y7U4 1-328)
chain: MSQLSFTGKSSSKGRSRLTQEVRPTASQIIADEEASDLDEYEEDLEGSGNEDDFGPSMSRSSRGRKRRKGDPLELQSQFEERNETDAINFQLLVRNVVRYAICSQTSHNTITRKDIVQKAFPEGTSRNLFQSVFEEADRQLQLSFGFRLVAVTQSNRKKDMAVSQLRRPATSNANSSNLHRYWVLRSTLPMELQKDSRLIVDSVLDTAYYGFLMTVIAFIAVSHCSVGHSELQSFLQELLTEEETTPLHLDITRSLSLLVRQGYLDRVKDDTHNQFVYYIGSRAVTEISIEGLKSFVTEFFPDSDIDMDALLTEYRQEYQNQSSSSAA
For B3, the binding entry in experiment [6] is listed as “binds”.
